Measured data: PubChem BioAssay AID1224830 (NIAID, 2016)

Screen: 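Regulators of TLR4 signalling towards TNF-alpha in macrophage-like cells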 (primary screen)
Cells: human THP-1 monocytic leukaemia cells, TNF dual-luciferase reporter clone, PMA-differentiated to macrophage-like cells
Reagents: siRNA pool against human genes, 50 nM
Timing: LPS for 4 h, given about 3 days after siRNA transfection
Conditions: bacterial LPS (TLR4 ligand), 10 ng/ml
Measured: 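TNF firefly reporter luminescence divided by renilla, normalised to the plate median, then turned into a robust z-score for each replicate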
Scale: TNF reporter robust z-score: higher = stronger TNF reporter response to LPS
Active means: 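a well is active when its z-score exceeds 2.8 or falls below -1.5; control wells carry no call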
Shown is one part, drawn at random, of about 18,000 reagents. Of all reagents, about 2,900 (16%) were called active. 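Calls are made per well; low scores hint the gene aids the LPS response, high scores that it dampens it.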 Repeated entries: four replicate wells of each siRNA pool.

PSPH (GeneID 5723)
- TNF reporter robust z-score: -0.39
- activity call: inactive

PSPH (GeneID 5723)
- TNF reporter robust z-score: -0.94
- activity call: inactive

PSPH (GeneID 5723)
- TNF reporter robust z-score: -0.42
- activity call: inactive

PSPH (GeneID 5723)
- TNF reporter robust z-score: -0.61
- activity call: inactive

RNMT (GeneID 8731)
- TNF reporter robust z-score: 0.12
- activity call: inactive

RNMT (GeneID 8731)
- TNF reporter robust z-score: 0.77
- activity call: inactive

RNMT (GeneID 8731)
- TNF reporter robust z-score: -0.01
- activity call: inactive

RNMT (GeneID 8731)
- TNF reporter robust z-score: 0.83
- activity call: inactive

OR12D3 (GeneID 81797)
- TNF reporter robust z-score: 0.42
- activity call: inactive

OR12D3 (GeneID 81797)
- TNF reporter robust z-score: 2.14
- activity call: inactive

OR12D3 (GeneID 81797)
- TNF reporter robust z-score: 0.43
- activity call: inactive

OR12D3 (GeneID 81797)
- TNF reporter robust z-score: 1.16
- activity call: inactive

ZBTB6 (GeneID 10773)
- TNF reporter robust z-score: 1.03
- activity call: inactive

ZBTB6 (GeneID 10773)
- TNF reporter robust z-score: 0.08
- activity call: inactive

ZBTB6 (GeneID 10773)
- TNF reporter robust z-score: -0.23
- activity call: inactive

ZBTB6 (GeneID 10773)
- TNF reporter robust z-score: 0.53
- activity call: inactive

GSG1L (GeneID 146395)
- TNF reporter robust z-score: 2.86
- activity call: active

GSG1L (GeneID 146395)
- TNF reporter robust z-score: 1.21
- activity call: inactive

GSG1L (GeneID 146395)
- TNF reporter robust z-score: 0.81
- activity call: inactive

GSG1L (GeneID 146395)
- TNF reporter robust z-score: -0.27
- activity call: inactive

Hits, of those listed so far:
GSG1L (GeneID 146395)
- TNF reporter robust z-score: 2.86
- activity call: active
